In PubChem BioAssay AID493014 (National Center for Advancing Translational Sciences (NCATS), 2011):
Some of the results follow. These are further read-outs of the screen, such as a control signal, another cell line or another target. No call is given for them. The list favours compounds with an active or inconclusive main result. Words in brackets tell the shape of the fitted curve; partial curves, single points and poor fits give uncertain potencies.

Test: qHTS Assay to Find Inhibitors of Chronic Active B-Cell Receptor Signaling
Conditions: ABC-DLBCL IkBa-CBG/CBR reporter, luminescence ratio (green luciferase fused to IkBa over red control in TMD8 lymphoma cells), 4 h
Method in brief: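 TMD8 ABC-DLBCL cells carrying doxycycline-inducible green luciferase fused to IkappaBalpha plus unfused red luciferase were exposed to compounds (up to 46 uM) for 4 hrs at 37C. Activity came from the overlap-corrected green/red luminescence ratio.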

[1] = measured here: CBR red luminescence, cell number
[2] = measured here: IkBa-CBG green luminescence

| Compound | AC50 [1] | AC50 [2] |
| --- | --- | --- |
| O=C(N/N=C/c1cccc(Oc2ccccc2)c1)c1ccccc1F | 20 µM [falling, partial curve, poor fit] | – |
| CCOC(=O)COc1ccc(C)cc1-c1ccno1 | 2.06 µM [falling, single point] | – |
| CC(=O)c1ccc2c(c1)c1ccccc1n2CC(C)C | 18.4 µM [falling, partial curve] | – |
| Cc1ccc(C)c(OCCC(=O)OCC(=O)c2ccc3c(c2)NC(=O)CO3)c1 | 16.4 µM [rising, single point] | – |
| C=CCC[C@@H](Cc1ccc(F)cc1)C(=O)OC[C@H](Cc1c[nH]c2ccccc12)NC(=O)[C@@H](CC=C)CC(=O)NCCO | 16.4 µM [falling, single point] | – |
| CC(C)OC(=O)c1cc2ccccc2[nH]1 | 2.06 µM [rising, full curve, poor fit] | – |
| CCn1cc(C(=O)N2CC=C(c3ccccc3)CC2)c(=O)c2ccc(C)nc21 | 7.08 µM [falling, full curve, poor fit] | – |
| CCOC(=O)c1cnn(-c2ccccc2)c1N | 29.1 µM [falling, single point] | – |
| CC(C)C[C@H](NC(=O)N1CCn2c1nc1ccccc12)C(=O)NCCc1ccccc1 | 11.2 µM [falling, partial curve, poor fit] | – |
| C/C(=N\NC(=O)c1ccc(N/N=C(\C)c2ccc(O)cc2)cc1)c1ccc(O)cc1 | 3.55 µM [falling, partial curve] | – |
| Cc1nnc(NC(=O)c2sc3nc(-c4cccs4)cc(C(F)(F)F)c3c2N)s1 | 11.2 µM [falling, partial curve, poor fit] | – |
| COc1ccc2[nH]c3c(=O)n(/N=C/[C@H]4C(C)C=C(C)CC4C)c(=O)[nH]c3c2c1 (some centres not stated) | 3.16 µM [falling, partial curve, poor fit] | – |
| O=C(Cn1cnc2cc([N+](=O)[O-])ccc2c1=O)Nc1ccc(N2CCOCC2)cc1 | 5.01 µM [falling, partial curve, poor fit] | – |
| Cc1onc(-c2ccccc2)c1C(=O)N/N=C/c1ccc([N+](=O)[O-])s1 | 10.3 µM [falling, partial curve] | – |
| CCOC(=O)c1cnn(-c2nc(-c3ccccc3F)cs2)c1C(F)(F)F | 17.8 µM [rising, partial curve, poor fit] | – |
| CN1C(=O)/C(=C/c2ccccc2F)Sc2ccc(C(=O)N3CCCC3)cc21 | 17.8 µM [falling, partial curve, poor fit] | – |
| CN1C(=O)N(CN2CCCCC2)C2C1N(C)C(=O)N2CN1CCCCC1 (configuration not stated) | 6.51 µM [falling, single point] | 3.66 µM [rising, partial curve, poor fit] |
| Cc1cccc(C)c1OCCn1nc(C(=O)O)c2ccccc2c1=O | 29.1 µM [falling, single point] | – |
| CC(C)C(O)(C#CCN1CCCCCC1)c1ccccc1 (configuration not stated) | 35.5 µM [falling, single point] | – |
| COc1ccccc1Nc1nc(-c2sc(NC(=O)c3ccccc3)nc2C)cs1 | 28.2 µM [falling, single point] | – |

Taken from above.
AC50 [1] with CN1C(=O)/C(=C/c2ccccc2F)Sc2ccc(C(=O)N3CCCC3)cc21 is entered as 17.8 µM [falling, partial curve, poor fit]
AC50 [1] with CC(C)OC(=O)c1cc2ccccc2[nH]1 is entered as 2.06 µM [rising, full curve, poor fit]
AC50 [1] with Cc1onc(-c2ccccc2)c1C(=O)N/N=C/c1ccc([N+](=O)[O-])s1 is entered as 10.3 µM [falling, partial curve]

The list continues.

| Compound | AC50 [1] | AC50 [2] |
| --- | --- | --- |
| CCCCNC(=O)NNC(=O)c1ccoc1C | 12.6 µM [falling, partial curve] | – |
| CC(=O)c1sc(NS(=O)(=O)c2ccc(C)cc2)nc1-c1ccccc1 | 35.5 µM [falling, single point] | – |
| CNC(=O)c1cc2c(-c3ccccc3)nn(C)c2s1 | 3.55 µM [falling, single point] | – |
| COc1ccc(O)c(/C=N/N=C2/C(=O)Nc3ccccc32)c1 | 14.1 µM [falling, single point] | – |
| COc1cccc(C(=O)Nc2nnc(C(C)C)s2)c1 | 16.4 µM [falling, single point] | – |
| O=C(O)c1nn(CCOc2ccccc2F)c(=O)c2ccccc12 | 0.224 µM [rising, partial curve, poor fit] | – |
| N#Cc1cccc(NC(=O)CNc2cc(S(=O)(=O)N3CCOCC3)ccc2N2CCCC2)c1 | 6.51 µM [rising, single point] | – |
| Cc1nnc(SC2CC(=O)N(c3ccccc3)C2=O)s1 (configuration not stated) | 18.4 µM [falling, single point] | 23.1 µM [rising, partial curve, poor fit] |
| Cn1c(=O)c2c(nc3sccn32)n(C)c1=O | – | 23.1 µM [rising, single point] |
| COC(=O)Nc1ccc(S(=O)(=O)N2c3ccccc3CCC2C)cc1 (configuration not stated) | 22.4 µM [falling, single point] | – |
| CCOC(=O)Cc1csc(NC(=O)COc2ccc(C)cc2)n1 | 0.562 µM [falling, full curve, poor fit] | – |
| CCCCOC(=O)c1ccc(NC(=O)Nc2ccc(OC)c(OC)c2)cc1 | 14.6 µM [falling, partial curve, poor fit] | – |
| COc1ccc(/C=N/NC(=O)CSCc2ccc([N+](=O)[O-])cc2)cc1OC | 29.1 µM [rising, single point] | – |
| COc1ccc(CC(=O)Nc2ccc(-c3cn4ccccc4n3)cc2)cc1OC | 29.1 µM [rising, single point] | – |
| CCCCN(Cc1ccco1)C(=O)c1cc2c(=O)[nH]c3ccc(C)cc3c2s1 | 2.06 µM [falling, full curve, poor fit] | – |
| CCOc1cc(/C=N/Nc2nn3cnnc3c3ccccc23)ccc1O | 2.24 µM [falling, full curve] | – |
| O=C(C1CC1)N(Cc1ccco1)c1nc(-c2ccccc2)cs1 | 23.1 µM [rising, partial curve, poor fit] | – |
| Clc1ccccc1-c1nc2ccccc2[nH]1 | 8.91 µM [falling, partial curve, poor fit] | – |
| COc1ccccc1OCCNC(=O)C(c1ccccc1)c1ccccc1 | 25.1 µM [falling, partial curve, poor fit] | – |
| C/C(=N\Nc1nc(C(=O)O)cs1)c1ccccc1 | 25.1 µM [falling, single point] | – |
